From the supplement of paper PMC10849652
The list shows a part of the results.

By UniProt entry, the sequences of proteins in these tests, tags left out. Where a name states a change or a piece, a line headed by the entry shows the natural chain unless it says otherwise.
UniProt Q8IXR5: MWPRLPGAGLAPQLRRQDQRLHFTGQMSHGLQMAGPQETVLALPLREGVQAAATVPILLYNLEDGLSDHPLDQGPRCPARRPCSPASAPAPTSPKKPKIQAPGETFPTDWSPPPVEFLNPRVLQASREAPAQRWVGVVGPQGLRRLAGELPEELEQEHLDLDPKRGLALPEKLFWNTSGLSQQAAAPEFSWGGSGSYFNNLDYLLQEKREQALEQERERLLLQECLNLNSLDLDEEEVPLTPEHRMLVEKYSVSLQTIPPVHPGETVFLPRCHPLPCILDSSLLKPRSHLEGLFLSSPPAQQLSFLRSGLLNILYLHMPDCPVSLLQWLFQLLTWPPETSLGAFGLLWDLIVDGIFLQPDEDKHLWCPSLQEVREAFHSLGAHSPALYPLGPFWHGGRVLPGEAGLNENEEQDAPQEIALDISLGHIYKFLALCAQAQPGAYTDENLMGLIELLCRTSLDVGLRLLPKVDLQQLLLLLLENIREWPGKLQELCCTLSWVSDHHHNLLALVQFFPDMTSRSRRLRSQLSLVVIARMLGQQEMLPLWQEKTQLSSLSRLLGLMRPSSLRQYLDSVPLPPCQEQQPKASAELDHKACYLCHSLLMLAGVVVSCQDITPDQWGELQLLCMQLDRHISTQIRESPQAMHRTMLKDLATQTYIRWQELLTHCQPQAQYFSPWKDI
UniProt A2RU67: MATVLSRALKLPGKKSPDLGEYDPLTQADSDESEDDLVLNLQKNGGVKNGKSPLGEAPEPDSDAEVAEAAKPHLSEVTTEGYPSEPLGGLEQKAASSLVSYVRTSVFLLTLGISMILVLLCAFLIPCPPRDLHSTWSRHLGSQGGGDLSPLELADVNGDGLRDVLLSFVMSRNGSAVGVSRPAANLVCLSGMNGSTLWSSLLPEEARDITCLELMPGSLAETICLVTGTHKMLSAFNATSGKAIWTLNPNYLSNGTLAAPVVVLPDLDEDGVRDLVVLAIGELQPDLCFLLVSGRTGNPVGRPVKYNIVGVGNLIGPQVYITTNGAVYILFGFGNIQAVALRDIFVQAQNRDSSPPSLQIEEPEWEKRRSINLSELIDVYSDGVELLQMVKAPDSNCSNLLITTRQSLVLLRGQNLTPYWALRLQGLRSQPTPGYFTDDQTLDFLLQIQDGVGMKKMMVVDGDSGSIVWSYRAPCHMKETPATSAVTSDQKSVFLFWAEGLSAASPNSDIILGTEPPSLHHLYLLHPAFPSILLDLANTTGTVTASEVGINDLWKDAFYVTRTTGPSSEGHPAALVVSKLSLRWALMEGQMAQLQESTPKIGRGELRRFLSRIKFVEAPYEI
UniProt P50549: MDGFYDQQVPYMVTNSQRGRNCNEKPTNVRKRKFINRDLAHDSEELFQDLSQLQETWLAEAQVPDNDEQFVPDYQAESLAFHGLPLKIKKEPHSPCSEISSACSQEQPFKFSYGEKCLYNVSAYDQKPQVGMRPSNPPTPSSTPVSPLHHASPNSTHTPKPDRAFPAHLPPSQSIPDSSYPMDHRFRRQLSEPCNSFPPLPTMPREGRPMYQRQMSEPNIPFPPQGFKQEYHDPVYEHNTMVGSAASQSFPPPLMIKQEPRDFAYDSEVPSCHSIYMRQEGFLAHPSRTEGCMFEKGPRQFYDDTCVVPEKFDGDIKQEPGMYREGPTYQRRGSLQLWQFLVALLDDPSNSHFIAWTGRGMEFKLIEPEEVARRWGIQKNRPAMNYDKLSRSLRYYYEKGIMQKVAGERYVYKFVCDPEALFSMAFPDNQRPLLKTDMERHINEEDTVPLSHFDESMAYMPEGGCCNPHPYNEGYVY
UniProt B1AK53: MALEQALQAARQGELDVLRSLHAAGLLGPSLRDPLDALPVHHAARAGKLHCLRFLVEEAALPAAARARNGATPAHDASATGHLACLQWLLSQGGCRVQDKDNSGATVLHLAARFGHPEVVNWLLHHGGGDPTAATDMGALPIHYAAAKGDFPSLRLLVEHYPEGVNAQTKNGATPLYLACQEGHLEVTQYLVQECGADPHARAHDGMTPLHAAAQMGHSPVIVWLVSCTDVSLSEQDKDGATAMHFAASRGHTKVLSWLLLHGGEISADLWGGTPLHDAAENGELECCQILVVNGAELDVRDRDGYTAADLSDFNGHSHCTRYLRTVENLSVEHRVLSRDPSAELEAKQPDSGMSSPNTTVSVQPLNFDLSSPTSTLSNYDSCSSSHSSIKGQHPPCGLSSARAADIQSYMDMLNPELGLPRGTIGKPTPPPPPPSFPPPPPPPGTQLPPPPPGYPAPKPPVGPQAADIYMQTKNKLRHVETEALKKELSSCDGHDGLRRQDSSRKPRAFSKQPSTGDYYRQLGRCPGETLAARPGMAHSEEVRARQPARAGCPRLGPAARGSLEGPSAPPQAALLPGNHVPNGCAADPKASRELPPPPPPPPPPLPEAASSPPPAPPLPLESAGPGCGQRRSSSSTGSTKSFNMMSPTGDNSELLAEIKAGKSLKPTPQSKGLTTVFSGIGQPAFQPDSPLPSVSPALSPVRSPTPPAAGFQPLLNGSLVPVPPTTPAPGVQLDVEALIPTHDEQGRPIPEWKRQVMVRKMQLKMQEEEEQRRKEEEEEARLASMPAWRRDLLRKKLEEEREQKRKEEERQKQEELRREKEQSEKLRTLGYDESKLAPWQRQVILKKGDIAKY
UniProt H0Y354, whole entry, looked up: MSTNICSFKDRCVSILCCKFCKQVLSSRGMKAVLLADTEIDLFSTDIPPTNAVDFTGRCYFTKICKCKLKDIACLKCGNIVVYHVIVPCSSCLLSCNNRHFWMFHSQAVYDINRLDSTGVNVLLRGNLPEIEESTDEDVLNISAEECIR
UniProt P41162: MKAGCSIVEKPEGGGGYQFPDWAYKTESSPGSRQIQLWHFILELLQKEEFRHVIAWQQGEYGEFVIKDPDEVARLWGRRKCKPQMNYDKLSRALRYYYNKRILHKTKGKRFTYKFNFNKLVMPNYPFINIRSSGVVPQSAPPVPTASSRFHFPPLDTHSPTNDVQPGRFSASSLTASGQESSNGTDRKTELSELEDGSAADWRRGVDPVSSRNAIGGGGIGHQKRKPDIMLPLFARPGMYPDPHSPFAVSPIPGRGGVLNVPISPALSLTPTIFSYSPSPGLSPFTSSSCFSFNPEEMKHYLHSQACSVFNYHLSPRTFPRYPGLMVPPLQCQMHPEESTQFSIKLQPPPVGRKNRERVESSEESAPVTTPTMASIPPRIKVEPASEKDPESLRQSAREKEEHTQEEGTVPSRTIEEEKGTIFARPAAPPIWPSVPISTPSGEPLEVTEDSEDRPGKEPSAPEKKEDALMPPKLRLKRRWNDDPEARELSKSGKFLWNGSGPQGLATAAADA
UniProt P41161: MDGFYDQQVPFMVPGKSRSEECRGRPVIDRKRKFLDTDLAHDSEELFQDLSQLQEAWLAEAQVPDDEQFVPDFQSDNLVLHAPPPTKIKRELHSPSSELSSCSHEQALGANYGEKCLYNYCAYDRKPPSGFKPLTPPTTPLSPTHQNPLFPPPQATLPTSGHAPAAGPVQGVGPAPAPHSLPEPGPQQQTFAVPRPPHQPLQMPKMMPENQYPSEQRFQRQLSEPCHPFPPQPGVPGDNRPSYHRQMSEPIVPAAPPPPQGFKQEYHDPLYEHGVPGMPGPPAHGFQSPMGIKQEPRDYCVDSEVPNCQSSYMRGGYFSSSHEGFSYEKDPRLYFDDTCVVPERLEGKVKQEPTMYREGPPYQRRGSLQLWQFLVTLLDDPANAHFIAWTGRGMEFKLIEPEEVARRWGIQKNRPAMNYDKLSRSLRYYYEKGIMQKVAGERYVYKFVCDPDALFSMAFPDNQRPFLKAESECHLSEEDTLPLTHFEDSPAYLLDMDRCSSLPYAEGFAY
UniProt P41212: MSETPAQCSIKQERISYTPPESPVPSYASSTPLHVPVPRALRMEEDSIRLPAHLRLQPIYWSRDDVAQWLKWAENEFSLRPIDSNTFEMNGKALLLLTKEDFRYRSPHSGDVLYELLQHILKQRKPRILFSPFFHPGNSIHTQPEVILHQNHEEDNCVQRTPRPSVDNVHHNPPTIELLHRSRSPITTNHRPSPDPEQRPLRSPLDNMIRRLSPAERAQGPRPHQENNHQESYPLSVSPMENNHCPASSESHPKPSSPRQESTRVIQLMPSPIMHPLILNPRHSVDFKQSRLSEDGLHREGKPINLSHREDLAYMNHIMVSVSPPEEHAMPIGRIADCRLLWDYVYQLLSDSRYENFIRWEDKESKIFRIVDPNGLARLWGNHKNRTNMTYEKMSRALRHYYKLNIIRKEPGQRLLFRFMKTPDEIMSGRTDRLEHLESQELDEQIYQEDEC
UniProt Q96PV7: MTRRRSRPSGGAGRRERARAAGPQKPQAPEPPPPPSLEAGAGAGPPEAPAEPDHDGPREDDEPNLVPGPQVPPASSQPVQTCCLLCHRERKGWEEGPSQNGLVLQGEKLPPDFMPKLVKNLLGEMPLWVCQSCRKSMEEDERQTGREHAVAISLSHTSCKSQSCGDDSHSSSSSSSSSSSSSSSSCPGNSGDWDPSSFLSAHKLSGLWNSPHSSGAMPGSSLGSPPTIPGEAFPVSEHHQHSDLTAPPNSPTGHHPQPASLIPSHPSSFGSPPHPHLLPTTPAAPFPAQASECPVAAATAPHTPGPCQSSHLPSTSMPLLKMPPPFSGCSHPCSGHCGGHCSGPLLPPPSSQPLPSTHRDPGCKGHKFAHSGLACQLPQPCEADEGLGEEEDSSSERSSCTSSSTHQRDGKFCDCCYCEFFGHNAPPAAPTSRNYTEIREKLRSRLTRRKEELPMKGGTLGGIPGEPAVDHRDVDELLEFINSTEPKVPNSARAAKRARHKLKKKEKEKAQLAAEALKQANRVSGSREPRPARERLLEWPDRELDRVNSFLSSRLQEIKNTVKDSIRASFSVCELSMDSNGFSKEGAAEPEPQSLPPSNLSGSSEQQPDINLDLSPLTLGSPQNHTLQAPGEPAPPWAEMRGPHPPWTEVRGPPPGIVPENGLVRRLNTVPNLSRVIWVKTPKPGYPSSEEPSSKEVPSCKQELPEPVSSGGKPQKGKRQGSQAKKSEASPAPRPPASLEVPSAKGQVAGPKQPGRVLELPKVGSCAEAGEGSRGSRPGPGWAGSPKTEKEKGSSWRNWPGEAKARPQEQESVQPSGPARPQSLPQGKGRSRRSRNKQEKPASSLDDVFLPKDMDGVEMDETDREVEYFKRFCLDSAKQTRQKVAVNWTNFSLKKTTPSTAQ
UniProt Q9NY74: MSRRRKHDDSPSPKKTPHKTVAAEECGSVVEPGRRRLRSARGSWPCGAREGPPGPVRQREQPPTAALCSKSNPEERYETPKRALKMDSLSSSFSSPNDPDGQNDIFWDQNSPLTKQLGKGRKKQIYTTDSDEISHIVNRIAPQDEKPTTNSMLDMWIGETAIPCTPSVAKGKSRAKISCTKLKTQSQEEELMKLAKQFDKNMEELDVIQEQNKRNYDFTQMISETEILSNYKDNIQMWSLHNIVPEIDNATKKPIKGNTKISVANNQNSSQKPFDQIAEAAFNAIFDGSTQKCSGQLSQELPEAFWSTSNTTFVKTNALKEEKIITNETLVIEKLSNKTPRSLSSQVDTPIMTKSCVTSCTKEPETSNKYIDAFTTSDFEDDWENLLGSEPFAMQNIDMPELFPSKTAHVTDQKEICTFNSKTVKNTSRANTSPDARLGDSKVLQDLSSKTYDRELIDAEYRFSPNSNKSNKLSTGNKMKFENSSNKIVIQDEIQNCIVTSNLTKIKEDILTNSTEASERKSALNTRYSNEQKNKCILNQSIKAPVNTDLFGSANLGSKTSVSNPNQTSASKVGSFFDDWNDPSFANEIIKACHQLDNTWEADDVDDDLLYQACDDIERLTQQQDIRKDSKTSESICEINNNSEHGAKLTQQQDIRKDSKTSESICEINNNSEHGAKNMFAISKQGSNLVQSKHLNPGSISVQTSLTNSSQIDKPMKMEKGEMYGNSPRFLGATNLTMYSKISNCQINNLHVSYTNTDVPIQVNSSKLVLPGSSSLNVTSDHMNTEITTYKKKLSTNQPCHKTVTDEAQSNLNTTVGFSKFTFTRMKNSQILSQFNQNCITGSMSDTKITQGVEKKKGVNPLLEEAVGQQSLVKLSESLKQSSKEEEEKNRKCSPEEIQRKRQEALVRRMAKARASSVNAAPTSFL
UniProt Q969W3: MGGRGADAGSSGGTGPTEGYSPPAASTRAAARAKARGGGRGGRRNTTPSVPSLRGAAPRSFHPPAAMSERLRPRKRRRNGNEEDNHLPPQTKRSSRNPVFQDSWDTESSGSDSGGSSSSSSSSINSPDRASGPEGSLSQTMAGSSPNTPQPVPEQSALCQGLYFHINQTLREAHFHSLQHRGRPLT

Columns and labels:
Experiment in all cases: log2 fold change, soluble protein after heating vs DMSO (PISA); higher = thermal stabilisation; K562 lysate, 10 uM; active = over 0.2 and 3.5 SD of the protein, either way, in both replicates (recomputed)
[1] = compound: C1=CC=C(C=C1)C2=NC(=C(N2)C3=CC=NC=C3)C4=CC(=C(C=C4)Cl)O
Outline: (§1)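 Dounce homogenisation of K562 pellets in PBS pH 7.4 with 1 mM MgCl2 produced a crude extract, used at 1 mg/mL protein. Exposure to 10 μM compound lasted 30 min, and aliquots were then heated for 3 min across 48°C-58°C, pooled and brought to 0.5% NP-40 at 4°C. The supernatant after 21,000xg for 90 min was quantified by TMTpro 16plex LC-MS/MS with channel sums equalised. Duplicate values are given as log-two fold change in thermal stability relative to solvent controls.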

IRAK-1-4 Inhibitor I = compound: C1COCCN1CCN2C3=CC=CC=C3N=C2NC(=O)C4=CC(=CC=C4)[N+](=O)[O-] [IRAK-1-4 Inhibitor I]
Outline: as §1

ralimetinib = compound: CC(C)(C)Cn1c(N)nc2ccc(-c3[nH]c(C(C)(C)C)nc3-c3ccc(F)cc3)nc21 [ralimetinib]
Outline: as §1

[2] = compound: CC(C)(O)CC(=O)NCCn1ccc2ncnc(Nc3ccc(Oc4cccc(C(F)(F)F)c4)c(Cl)c3)c21
Outline: as §1

[3] = compound: CC1=C(C(CC(=O)N1)C2=CC=C(C=C2)C(F)(F)F)C(=O)NC3=C(C=C4C(=C3)C=NN4)F
Outline: as §1

[4] = compound: CC1=C(C2=C(C=C1)C(=O)C3=CC=CC=C3N2CCCN)C
Outline: as §1

[5] = compound: CC1=C(C=C(C=C1)NC(=O)C2=CC(=CC=C2)N(C)C)NC(=O)C3=CC=C(C=C3)O
Outline: as §1

[6] = compound: C1CCN(C1)C(=O)NC2=CC=CC(=C2)NC3=NC=C(C(=N3)NCCC4=CN=CN4)Br
Outline: as §1

[7] = compound: C1CN(CCC1(CC2=CC=C(C=C2)Cl)N)C3=NC=NC4=C3C=CN4
Outline: as §1

[8] = compound: CC1=C(C=C(C=C1)NC(=O)C2=CC(=CC=C2)C(C)(C)C#N)NC3=CC4=C(C=C3)N=CN(C4=O)C
Outline: as §1

[9] = compound: CC(=O)c1cnc2ccc(-c3cc(Cl)c(O)c(Cl)c3)nc2c1N[C@H]1CC[C@H](CN(C)C)CC1
Outline: as §1

[10] = compound: CC1=CC=C(C=C1)SC2=C3C=C(SC3=CN=C2)C(=O)N
Outline: as §1

erlotinib = compound: C#Cc1cccc(Nc2ncnc3cc(OCCOC)c(OCCOC)cc23)c1 [erlotinib]
Outline: as §1

[11] = compound: C1=CC(=CC=C1C2=NC3=C(N2)C=C(C=C3)C(=O)N)OC4=CC=C(C=C4)Cl
Outline: as §1

[12] = compound: CC(C)C1=C2N=C(C=C(N2N=C1)NCC3=CC=CC=C3)NCCCCCCN
Outline: as §1

[13] = compound: C/C(=N\NC(=O)C1=CC(=CC=C1)S(=O)(=O)N2CCOCC2)/C3=C(C=CC(=C3)Cl)O
Outline: as §1

[14] = compound: C1=CC2=C(C=CC(=C2)/C=C\3/C(=O)NC(=NCC4=CC=CS4)S3)N=C1
Outline: as §1

[15] = compound: C1=CC=C2C(=C1)C3=NNC4=CC=CC(=C43)C2=O
Outline: as §1

[16] = compound: C1=CC2=NC=CN=C2C=C1/C=C/3\C(=O)NC(=O)S3
Outline: as §1

ibrutinib = compound: C=CC(=O)N1CCC[C@@H](n2nc(-c3ccc(Oc4ccccc4)cc3)c3c(N)ncnc32)C1 [ibrutinib]
Outline: as §1

Measured: log2 fold change

FAM3A (UniProt Q9BU27)
inactive: [1] 0.064 | IRAK-1-4 Inhibitor I 0.068 | ralimetinib 0.013 | [2] 0.014 | [3] -0.225 | [4] -0.255 | [5] -0.074

FAM178B (UniProt Q8IXR5)
inactive: [6] -0.083 | [7] -0.009 | [8] 0.042

FAM234B (UniProt A2RU67)
inactive: [1] -0.062 | IRAK-1-4 Inhibitor I -0.091 | [9] -0.157 | ralimetinib -0.047 | [2] -0.078 | [5] 0.085 | [10] -0.123

ETV1 (UniProt P50549)
inactive: erlotinib -0.081 | [11] 0.149 | [1] 0.029 | IRAK-1-4 Inhibitor I -0.086 | ralimetinib 0.133 | [2] 0.022 | [12] -0.11 | [3] 0.255 | [4] -0.008 | [5] -0.085

ESPN (UniProt B1AK53)
inactive: [1] -0.078 | [6] -0.018 | [7] 0.037 | IRAK-1-4 Inhibitor I -0.009 | ralimetinib 0.019 | [2] 0.075 | [4] -0.024 | [5] 0.092

FAM72C (UniProt H0Y354)
inactive: [13] 0.027 | [14] 0.059 | [1] -0.116 | [15] 0.059 | IRAK-1-4 Inhibitor I 0.254 | ralimetinib -0.163 | [2] -0.395 | [5] 0.053

ETV3 (UniProt P41162)
inactive: [1] 0.093 | [6] -0.051 | [7] -0.054 | IRAK-1-4 Inhibitor I 0.019 | ralimetinib -0.161 | [2] 0.156 | [5] 0.031

EXOC6B (UniProt Q9Y2D4)
inactive: [13] 0.084 | [14] -0.053 | [15] 0 | [6] -0.058 | [7] 0.095 | [9] -0.039 | [3] 0.134 | [8] -0.034 | [10] 0.039

ETV5 isoform 2 (UniProt P41161)
inactive: [13] -0.022 | [14] -0.025 | [15] -0.016 | [6] 0.099 | [7] -0.011

ETV6 (UniProt P41212)
inactive: [13] 0.013 | [14] -0.097 | [1] -0.063 | [15] -0.012 | [6] -0.054 | [7] 0.034 | IRAK-1-4 Inhibitor I 0.088 | [9] 0.091 | ralimetinib 0.042 | [2] -0.072 | [3] 0.117 | [4] 0.062 | [8] 0.04 | [5] -0.004 | [10] -0.047

FAM193B (UniProt Q96PV7)
inactive: erlotinib 0.111 | [13] 0.159 | [11] 0.019 | [14] -0.007 | [15] -0.108 | [9] 0.228 | [12] -0.089 | [8] 0.254 | [10] 0.052

FAM49B, A0A1W2PRQ0
inactive: [13] -0.193 | [14] -0.106 | [16] 0.062 | [1] -0.274 | [15] 0 | [6] -0.111 | [7] -0.029 | IRAK-1-4 Inhibitor I -0.121 | ibrutinib -0.09 | ralimetinib -0.156 | [2] 0.187 | [5] -0.071

EWSR1 (UniProt H7BY36)
inactive: [13] -0.711 | [14] -0.346 | [16] 0.111 | [1] -0.208 | [15] -0.428 | [6] -0.011 | [7] -0.035 | IRAK-1-4 Inhibitor I -0.074 | ibrutinib -0.288 | ralimetinib -0.073 | [2] -0.052 | [4] -0.126 | [8] 0.071 | [5] 0.39

ETAA1 (UniProt Q9NY74)
inactive: erlotinib -0.228 | [13] -0.21 | [11] -0.412 | [14] 0.039 | [15] -0.389 | [6] -0.268 | [7] 0.375 | [12] -0.035

FAM104A isoform 2 (UniProt Q969W3)
inactive: [16] -0.14 | [1] -0.144 | IRAK-1-4 Inhibitor I 0.013 | ibrutinib 0 | ralimetinib -0.029 | [2] 0.133 | [4] -0.231 | [5] -0.044
